From the supplement of paper PMC10849652
The list shows a part of the results.

Chains of the proteins cited; added tags and fusions are not shown. Lines headed by an entry give the natural chain unless they say otherwise; changes in a name come on top.
UniProt Q9BRR0: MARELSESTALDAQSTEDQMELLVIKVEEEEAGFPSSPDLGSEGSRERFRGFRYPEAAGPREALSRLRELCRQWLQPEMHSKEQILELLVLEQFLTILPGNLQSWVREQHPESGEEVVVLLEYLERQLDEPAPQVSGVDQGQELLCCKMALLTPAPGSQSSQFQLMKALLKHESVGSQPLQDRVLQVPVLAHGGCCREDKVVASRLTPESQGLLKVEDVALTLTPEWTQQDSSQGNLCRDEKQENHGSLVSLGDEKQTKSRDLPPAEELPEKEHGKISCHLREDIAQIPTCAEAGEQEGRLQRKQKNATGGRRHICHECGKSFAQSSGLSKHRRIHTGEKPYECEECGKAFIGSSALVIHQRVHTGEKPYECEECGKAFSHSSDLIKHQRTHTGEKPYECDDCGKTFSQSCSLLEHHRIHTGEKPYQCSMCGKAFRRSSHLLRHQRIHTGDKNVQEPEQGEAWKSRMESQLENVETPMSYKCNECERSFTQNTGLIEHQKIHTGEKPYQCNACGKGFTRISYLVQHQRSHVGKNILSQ
UniProt Q19AV6: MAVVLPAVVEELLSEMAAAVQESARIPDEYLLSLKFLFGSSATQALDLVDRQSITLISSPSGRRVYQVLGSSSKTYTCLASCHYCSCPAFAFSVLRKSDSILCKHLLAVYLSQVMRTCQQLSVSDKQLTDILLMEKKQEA
UniProt Q499Z4: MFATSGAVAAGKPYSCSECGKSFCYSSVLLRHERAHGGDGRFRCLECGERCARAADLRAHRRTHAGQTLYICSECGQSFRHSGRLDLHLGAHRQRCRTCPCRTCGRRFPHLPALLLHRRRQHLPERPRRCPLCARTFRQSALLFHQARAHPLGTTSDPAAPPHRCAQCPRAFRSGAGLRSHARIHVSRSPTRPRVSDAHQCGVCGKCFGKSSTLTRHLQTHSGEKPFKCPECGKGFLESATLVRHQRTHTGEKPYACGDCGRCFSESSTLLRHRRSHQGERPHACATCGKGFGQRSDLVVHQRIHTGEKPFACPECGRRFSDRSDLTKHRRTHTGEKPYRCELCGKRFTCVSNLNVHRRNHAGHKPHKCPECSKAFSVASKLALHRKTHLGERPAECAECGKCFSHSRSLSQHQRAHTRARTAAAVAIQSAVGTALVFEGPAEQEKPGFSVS
UniProt Q9H900: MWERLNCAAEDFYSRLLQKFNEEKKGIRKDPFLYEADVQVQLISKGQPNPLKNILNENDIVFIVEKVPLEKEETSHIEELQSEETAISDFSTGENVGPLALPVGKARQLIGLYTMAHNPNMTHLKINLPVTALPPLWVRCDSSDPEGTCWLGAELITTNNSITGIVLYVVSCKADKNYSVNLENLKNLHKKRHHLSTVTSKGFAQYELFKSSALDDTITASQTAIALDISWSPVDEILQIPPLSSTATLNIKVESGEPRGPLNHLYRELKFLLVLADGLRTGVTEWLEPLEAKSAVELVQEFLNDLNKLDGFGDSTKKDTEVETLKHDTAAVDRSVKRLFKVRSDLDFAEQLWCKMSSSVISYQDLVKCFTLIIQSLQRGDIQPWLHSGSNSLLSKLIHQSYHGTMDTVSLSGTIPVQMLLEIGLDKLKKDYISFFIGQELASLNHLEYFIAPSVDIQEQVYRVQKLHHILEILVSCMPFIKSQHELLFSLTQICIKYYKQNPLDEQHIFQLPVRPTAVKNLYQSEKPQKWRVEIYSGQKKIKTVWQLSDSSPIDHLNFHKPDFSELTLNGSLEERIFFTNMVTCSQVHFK
UniProt Q8NB15: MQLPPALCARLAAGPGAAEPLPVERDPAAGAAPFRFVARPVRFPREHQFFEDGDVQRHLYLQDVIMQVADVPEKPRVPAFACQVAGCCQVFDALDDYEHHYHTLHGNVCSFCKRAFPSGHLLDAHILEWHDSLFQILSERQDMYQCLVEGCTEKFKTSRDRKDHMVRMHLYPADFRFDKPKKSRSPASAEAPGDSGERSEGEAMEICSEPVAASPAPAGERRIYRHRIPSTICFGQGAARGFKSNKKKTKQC
UniProt Q03936: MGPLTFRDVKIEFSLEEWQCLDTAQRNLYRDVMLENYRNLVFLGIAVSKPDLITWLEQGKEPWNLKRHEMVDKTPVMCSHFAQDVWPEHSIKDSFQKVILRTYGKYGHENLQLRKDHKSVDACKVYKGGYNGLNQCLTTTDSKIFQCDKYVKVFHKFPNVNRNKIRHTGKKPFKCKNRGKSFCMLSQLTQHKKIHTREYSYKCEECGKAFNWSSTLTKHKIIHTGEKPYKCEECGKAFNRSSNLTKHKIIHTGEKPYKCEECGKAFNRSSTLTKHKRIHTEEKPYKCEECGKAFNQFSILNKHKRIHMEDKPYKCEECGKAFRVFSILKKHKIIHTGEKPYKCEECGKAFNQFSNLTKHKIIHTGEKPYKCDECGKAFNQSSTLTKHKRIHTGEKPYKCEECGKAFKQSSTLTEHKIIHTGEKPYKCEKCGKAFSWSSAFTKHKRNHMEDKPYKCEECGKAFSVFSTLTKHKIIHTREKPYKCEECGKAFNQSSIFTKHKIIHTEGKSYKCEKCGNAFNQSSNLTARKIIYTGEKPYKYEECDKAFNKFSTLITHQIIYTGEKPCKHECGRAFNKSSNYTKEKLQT
UniProt Q9P2E3: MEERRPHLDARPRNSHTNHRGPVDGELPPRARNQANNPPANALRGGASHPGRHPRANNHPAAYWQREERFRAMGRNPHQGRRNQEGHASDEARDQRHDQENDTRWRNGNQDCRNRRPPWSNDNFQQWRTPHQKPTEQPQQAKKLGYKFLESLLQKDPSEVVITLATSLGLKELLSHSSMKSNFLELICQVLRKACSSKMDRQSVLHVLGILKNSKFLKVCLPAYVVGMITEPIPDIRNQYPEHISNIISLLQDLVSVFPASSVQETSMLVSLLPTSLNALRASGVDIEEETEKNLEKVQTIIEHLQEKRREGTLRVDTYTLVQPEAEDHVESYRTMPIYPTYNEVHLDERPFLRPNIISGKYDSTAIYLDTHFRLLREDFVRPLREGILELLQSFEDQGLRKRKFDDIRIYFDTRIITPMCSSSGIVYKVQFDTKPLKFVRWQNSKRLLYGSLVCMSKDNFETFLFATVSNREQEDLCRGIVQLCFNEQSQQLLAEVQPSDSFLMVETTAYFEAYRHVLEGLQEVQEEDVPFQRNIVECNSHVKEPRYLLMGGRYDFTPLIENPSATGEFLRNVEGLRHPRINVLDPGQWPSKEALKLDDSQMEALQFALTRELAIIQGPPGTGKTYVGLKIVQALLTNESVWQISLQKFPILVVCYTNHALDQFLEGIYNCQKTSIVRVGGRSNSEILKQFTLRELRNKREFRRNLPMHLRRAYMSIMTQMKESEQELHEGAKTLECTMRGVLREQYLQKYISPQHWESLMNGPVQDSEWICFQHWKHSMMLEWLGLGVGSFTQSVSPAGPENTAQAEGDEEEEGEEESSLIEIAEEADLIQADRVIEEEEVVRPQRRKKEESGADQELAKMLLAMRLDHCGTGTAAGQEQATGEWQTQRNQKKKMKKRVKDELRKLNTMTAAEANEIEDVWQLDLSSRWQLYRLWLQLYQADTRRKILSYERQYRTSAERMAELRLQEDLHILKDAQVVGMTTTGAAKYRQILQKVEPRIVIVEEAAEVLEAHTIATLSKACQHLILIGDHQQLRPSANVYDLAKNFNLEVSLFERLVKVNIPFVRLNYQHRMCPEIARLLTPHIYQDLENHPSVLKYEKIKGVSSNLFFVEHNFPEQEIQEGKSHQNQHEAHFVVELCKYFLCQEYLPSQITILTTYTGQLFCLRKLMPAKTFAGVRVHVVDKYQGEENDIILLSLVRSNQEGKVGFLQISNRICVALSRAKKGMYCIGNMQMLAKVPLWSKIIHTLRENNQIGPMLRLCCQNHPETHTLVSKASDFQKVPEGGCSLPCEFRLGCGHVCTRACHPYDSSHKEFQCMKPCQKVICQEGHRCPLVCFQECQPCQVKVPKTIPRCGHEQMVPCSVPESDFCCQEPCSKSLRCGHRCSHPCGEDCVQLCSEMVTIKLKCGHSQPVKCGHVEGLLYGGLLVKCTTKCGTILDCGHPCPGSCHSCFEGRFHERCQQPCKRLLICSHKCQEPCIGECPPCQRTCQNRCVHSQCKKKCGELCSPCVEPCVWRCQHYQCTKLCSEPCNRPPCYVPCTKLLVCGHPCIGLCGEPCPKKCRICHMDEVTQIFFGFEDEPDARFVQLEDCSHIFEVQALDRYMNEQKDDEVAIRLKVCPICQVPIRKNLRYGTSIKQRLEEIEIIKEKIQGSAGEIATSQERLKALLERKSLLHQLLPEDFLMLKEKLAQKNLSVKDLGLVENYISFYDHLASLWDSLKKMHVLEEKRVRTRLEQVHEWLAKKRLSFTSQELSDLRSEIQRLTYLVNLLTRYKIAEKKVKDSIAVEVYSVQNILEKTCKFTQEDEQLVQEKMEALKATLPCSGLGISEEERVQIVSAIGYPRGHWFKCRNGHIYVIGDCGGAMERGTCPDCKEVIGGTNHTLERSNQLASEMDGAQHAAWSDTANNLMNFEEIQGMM
UniProt Q6ZN55: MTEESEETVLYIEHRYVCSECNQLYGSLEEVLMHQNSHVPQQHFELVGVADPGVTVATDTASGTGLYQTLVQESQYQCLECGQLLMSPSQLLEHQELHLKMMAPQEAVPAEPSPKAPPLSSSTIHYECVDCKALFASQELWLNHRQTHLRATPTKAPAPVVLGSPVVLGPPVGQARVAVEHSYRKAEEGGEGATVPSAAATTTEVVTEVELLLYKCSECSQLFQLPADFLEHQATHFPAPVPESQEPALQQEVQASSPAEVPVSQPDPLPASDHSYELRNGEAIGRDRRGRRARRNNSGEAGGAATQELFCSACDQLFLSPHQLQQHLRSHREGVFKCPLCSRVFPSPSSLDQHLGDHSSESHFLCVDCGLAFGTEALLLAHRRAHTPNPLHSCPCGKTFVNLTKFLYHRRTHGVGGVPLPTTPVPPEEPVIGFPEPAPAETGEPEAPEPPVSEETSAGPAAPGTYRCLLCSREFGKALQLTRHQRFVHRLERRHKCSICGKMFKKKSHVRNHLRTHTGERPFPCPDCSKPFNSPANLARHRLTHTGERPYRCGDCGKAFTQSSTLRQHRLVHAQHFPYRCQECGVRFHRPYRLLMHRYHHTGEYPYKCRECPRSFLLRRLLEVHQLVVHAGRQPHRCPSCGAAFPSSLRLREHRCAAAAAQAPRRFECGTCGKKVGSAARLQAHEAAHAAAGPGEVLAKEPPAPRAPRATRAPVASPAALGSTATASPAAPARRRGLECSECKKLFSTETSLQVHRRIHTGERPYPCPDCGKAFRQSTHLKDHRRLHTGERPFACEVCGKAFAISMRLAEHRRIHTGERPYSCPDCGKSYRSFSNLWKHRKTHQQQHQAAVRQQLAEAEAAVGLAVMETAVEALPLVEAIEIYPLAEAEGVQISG
ZNF654, A0A1B0GWA0, UniProt A0A1B0GWA0, whole entry, looked up: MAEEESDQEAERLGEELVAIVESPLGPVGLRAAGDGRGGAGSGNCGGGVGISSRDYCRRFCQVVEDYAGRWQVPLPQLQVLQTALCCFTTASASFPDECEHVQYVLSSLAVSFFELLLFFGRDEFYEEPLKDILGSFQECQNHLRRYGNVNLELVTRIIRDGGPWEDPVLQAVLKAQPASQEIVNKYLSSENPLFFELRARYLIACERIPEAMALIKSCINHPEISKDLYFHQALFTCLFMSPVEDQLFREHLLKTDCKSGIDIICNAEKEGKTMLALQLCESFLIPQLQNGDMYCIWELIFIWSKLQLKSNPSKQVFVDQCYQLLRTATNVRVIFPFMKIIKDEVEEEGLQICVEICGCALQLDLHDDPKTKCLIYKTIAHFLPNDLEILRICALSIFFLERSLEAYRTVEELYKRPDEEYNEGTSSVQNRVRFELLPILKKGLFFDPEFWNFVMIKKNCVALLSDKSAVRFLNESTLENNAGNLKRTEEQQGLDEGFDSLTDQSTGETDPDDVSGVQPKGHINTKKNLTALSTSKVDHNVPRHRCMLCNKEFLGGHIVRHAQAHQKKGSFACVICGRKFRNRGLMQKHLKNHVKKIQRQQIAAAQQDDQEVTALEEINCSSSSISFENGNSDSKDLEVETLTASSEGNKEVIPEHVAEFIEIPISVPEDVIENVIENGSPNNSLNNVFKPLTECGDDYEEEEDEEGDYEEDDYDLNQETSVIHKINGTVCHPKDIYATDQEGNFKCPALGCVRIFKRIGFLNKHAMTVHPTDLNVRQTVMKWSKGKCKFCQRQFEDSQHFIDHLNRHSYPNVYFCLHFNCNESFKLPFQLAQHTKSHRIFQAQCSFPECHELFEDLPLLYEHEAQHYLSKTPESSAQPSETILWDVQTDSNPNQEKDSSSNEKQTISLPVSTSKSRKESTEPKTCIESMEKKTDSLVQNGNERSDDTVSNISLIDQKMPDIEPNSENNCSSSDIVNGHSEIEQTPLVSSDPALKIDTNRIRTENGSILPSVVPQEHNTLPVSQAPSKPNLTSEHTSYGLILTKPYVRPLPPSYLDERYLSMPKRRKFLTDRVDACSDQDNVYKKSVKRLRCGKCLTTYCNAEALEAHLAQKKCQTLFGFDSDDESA

Tests used:
Test in all cases: log2 fold change, soluble protein after heating vs DMSO (PISA); higher = thermal stabilisation; K562 lysate, 10 uM; active = over 0.2 and 3.5 SD of the protein, either way, in both replicates (recomputed)
alvocidib = compound: CN1CC[C@H](c2c(O)cc(O)c3c(=O)cc(-c4ccccc4Cl)oc23)[C@H](O)C1 [alvocidib]
How it was run: (§1)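 Following dounce homogenisation of K562 pellets in PBS pH 7.4 with 1 mM MgCl2, crude extract at 1 mg/mL protein was incubated for 30 min with 10 μM compound. Aliquots were then heated for 3 min over 48°C-58°C and pooled, NP-40 was added to 0.5% at 4°C, and soluble protein was recovered as the supernatant at 21,000xg for 90 min. Channel-sum-equalised TMTpro 16plex LC-MS/MS quantified this protein. Each value, from duplicates, is a log-two fold change in thermal stability relative to solvent controls.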

Tubastatin A = compound: CN1CCc2c(c3ccccc3n2Cc2ccc(C(=O)NO)cc2)C1 [Tubastatin A]
How it was run: as §1

[1] = compound: CNC(=O)C1=CC=CC=C1NC2=NC(=NC=C2Cl)NC3=C(C=C(C=C3)N4CCOCC4)OC
How it was run: as §1

defactinib = compound: CNC(=O)c1ccc(Nc2ncc(C(F)(F)F)c(NCc3nccnc3N(C)S(C)(=O)=O)n2)cc1 [defactinib]
How it was run: as §1

[2] = compound: CNc1nc(-c2ccc3c(N)n[nH]c3c2)cc(N2C[C@@H](C(=O)NC3CCCCC3)CC[C@H]2C)n1
How it was run: as §1

encorafenib = compound: COC(=O)N[C@@H](C)CNc1nccc(-c2cn(C(C)C)nc2-c2cc(Cl)cc(NS(C)(=O)=O)c2F)n1 [encorafenib]
How it was run: as §1

[3] = compound: COC(=O)[C@H](CCSC)NC(=O)C1=C(C=C(C=C1)NC[C@H](CS)N)C2=CC=CC=C2
How it was run: as §1

[4] = compound: COc1cc2nc(-c3cc(F)ccc3O)nc(N[C@@H]3CNC[C@H]3C(C)(C)O)c2cc1OC
How it was run: as §1

lapatinib = compound: CS(=O)(=O)CCNCc1ccc(-c2ccc3ncnc(Nc4ccc(OCc5cccc(F)c5)c(Cl)c4)c3c2)o1 [lapatinib]
How it was run: as §1

pictilisib = compound: CS(=O)(=O)N1CCN(Cc2cc3nc(-c4cccc5[nH]ncc45)nc(N4CCOCC4)c3s2)CC1 [pictilisib]
How it was run: as §1

crizotinib = compound: C[C@@H](Oc1cc(-c2cnn(C3CCNCC3)c2)cnc1N)c1c(Cl)ccc(F)c1Cl [crizotinib]
How it was run: as §1

[5] = compound: C[C@H](C1=CC=C(C=C1)C(=O)NC2=C3C=CNC3=NC=C2)N
How it was run: as §1

duvelisib = compound: C[C@H](Nc1ncnc2nc[nH]c12)c1cc2cccc(Cl)c2c(=O)n1-c1ccccc1 [duvelisib]
How it was run: as §1

gandotinib = compound: Cc1cc(Nc2cc(CN3CCOCC3)c3nc(C)c(Cc4ccc(Cl)cc4F)n3n2)n[nH]1 [gandotinib]
How it was run: as §1

tozasertib = compound: Cc1cc(Nc2cc(N3CCN(C)CC3)nc(Sc3ccc(NC(=O)C4CC4)cc3)n2)n[nH]1 [tozasertib]
How it was run: as §1

doramapimod = compound: Cc1ccc(-n2nc(C(C)(C)C)cc2NC(=O)Nc2ccc(OCCN3CCOCC3)c3ccccc23)cc1 [doramapimod]
How it was run: as §1

bafetinib = compound: Cc1ccc(NC(=O)c2ccc(CN3CC[C@H](N(C)C)C3)c(C(F)(F)F)c2)cc1Nc1nccc(-c2cncnc2)n1 [bafetinib]
How it was run: as §1

[6] = compound: Cc1cccc(CC(=O)N2CCc3c2ccc(-c2cn(C)c4ncnc(N)c24)c3F)n1
How it was run: as §1

alisertib = compound: COc1cc(Nc2ncc3c(n2)-c2ccc(Cl)cc2C(c2c(F)cccc2OC)=NC3)ccc1C(=O)O [alisertib]
How it was run: as §1

gefitinib = compound: COc1cc2ncnc(Nc3ccc(F)c(Cl)c3)c2cc1OCCCN1CCOCC1 [gefitinib]
How it was run: as §1

Measured: log2 fold change

ZKSCAN3 (UniProt Q9BRR0)
inactive: alvocidib -0.078 | Tubastatin A -0.035 | [1] 0.029 | defactinib -0.232 | [2] 0.014 | encorafenib -0.028 | [3] -0.041 | [4] 0.093 | lapatinib -0.112 | pictilisib 0.018 | crizotinib -0.023 | [5] 0.084 | duvelisib 0.019 | gandotinib -0.068 | tozasertib 0.053 | doramapimod 0.016 | bafetinib -0.119 | [6] -0.092

hCG_1984214 (UniProt I3L0E3)
inactive: alvocidib 0.022 | Tubastatin A -0.061 | [1] 0.105 | defactinib -0.043 | [2] 0.024 | encorafenib -0.018 | [3] -0.017 | alisertib -0.082 | [4] 0.008 | gefitinib -0.026 | lapatinib -0.04 | pictilisib -0.01 | crizotinib -0.033 | [5] -0.084 | duvelisib 0.045 | gandotinib 0.041 | tozasertib -0.011 | doramapimod 0.007 | bafetinib -0.113 | [6] 0.009

ZSWIM7 (UniProt Q19AV6)
inactive: alvocidib -0.128 | Tubastatin A 0.163 | [1] 0.08 | defactinib -0.024 | [2] 0 | [5] -0.002 | duvelisib 0.018 | gandotinib 0.154 | [6] 0.016

ZNF318 (UniProt Q5VUA4)
inactive: alvocidib 0.033 | Tubastatin A -0.177 | [1] 0.034 | defactinib -0.055 | [2] -0.002 | encorafenib 0.03 | [3] 0.117 | alisertib 0.03 | [4] 0.142 | gefitinib 0.025 | lapatinib 0.031 | pictilisib 0.059 | crizotinib 0.023 | [5] -0.008 | duvelisib 0.046 | gandotinib -0.021 | tozasertib -0.019 | doramapimod -0.01 | bafetinib -0.086 | [6] 0.112

2 consecutive records already listed, quoted:
ZSWIM7 (UniProt Q19AV6)
inactive: alvocidib -0.128 | Tubastatin A 0.163 | [1] 0.08 | defactinib -0.024 | [2] 0 | [5] -0.002 | duvelisib 0.018 | gandotinib 0.154 | [6] 0.016

ZNF318 (UniProt Q5VUA4)
inactive: alvocidib 0.033 | Tubastatin A -0.177 | [1] 0.034 | defactinib -0.055 | [2] -0.002 | encorafenib 0.03 | [3] 0.117 | alisertib 0.03 | [4] 0.142 | gefitinib 0.025 | lapatinib 0.031 | pictilisib 0.059 | crizotinib 0.023 | [5] -0.008 | duvelisib 0.046 | gandotinib -0.021 | tozasertib -0.019 | doramapimod -0.01 | bafetinib -0.086 | [6] 0.112

Following part.

ZNF672 (UniProt Q499Z4)
inactive: alvocidib 0.1 | Tubastatin A 0.007 | [1] 0.057 | defactinib -0.07 | [2] -0.083 | encorafenib -0.048 | [3] 0.148 | alisertib -0.024 | [4] -0.021 | gefitinib 0.008 | lapatinib -0.019 | pictilisib 0.016 | crizotinib 0.046 | [5] 0.117 | duvelisib -0.074 | gandotinib -0.209 | tozasertib -0.023 | doramapimod -0.054 | bafetinib -0.078 | [6] -0.069

ZNF330 (UniProt Q9Y3S2)
inactive: alvocidib -0.044 | Tubastatin A 0.081 | [1] -0.042 | defactinib -0.03 | [2] 0.053 | encorafenib -0.005 | [3] -0.029 | alisertib -0.019 | [4] -0.01 | gefitinib -0.137 | lapatinib 0.026 | pictilisib 0.008 | crizotinib 0.013 | [5] -0.03 | duvelisib -0.031 | gandotinib 0.067 | tozasertib 0 | doramapimod 0.008 | bafetinib -0.022 | [6] -0.003

ZWILCH (UniProt Q9H900)
inactive: alvocidib 0.002 | Tubastatin A -0.016 | [1] 0.039 | defactinib 0.025 | [2] -0.049 | encorafenib 0.011 | [3] -0.007 | alisertib 0.013 | [4] 0.007 | gefitinib -0.042 | lapatinib -0.032 | pictilisib -0.002 | crizotinib -0.056 | [5] -0.038 | duvelisib 0.001 | gandotinib -0.083 | tozasertib 0.009 | doramapimod 0.019 | bafetinib -0.009 | [6] 0.017

ZNF511 (UniProt Q8NB15)
inactive: alvocidib 0.026 | Tubastatin A -0.03 | [1] 0.157 | defactinib 0.008 | [2] 0.033 | encorafenib 0.01 | [3] -0.052 | alisertib -0.003 | [4] -0.014 | gefitinib -0.055 | lapatinib 0.063 | pictilisib 0.081 | crizotinib 0.03 | [5] -0.205 | duvelisib 0.01 | gandotinib 0.047 | tozasertib -0.015 | doramapimod 0.03 | bafetinib -0.033 | [6] 0.029

ZNF74 isoform 5 (UniProt Q16587)
inactive: alvocidib -0.015 | Tubastatin A -0.328 | [1] -0.087 | [2] 0.016 | encorafenib -0.145 | [3] 0.018 | alisertib -0.082 | [4] 0.012 | gefitinib -0.208 | lapatinib -0.1 | pictilisib 0.012 | [5] 0.11 | duvelisib 0.02 | gandotinib -0.032 | tozasertib -0.29 | bafetinib 0.3 | [6] -0.05

ZNF644 (UniProt Q9H582)
inactive: alvocidib 0.003 | Tubastatin A -0.038 | [1] -0.058 | defactinib 0.025 | [2] -0.02 | encorafenib 0.028 | [3] -0.011 | alisertib -0.018 | gefitinib -0.024 | pictilisib -0.133 | crizotinib -0.026 | [5] 0.04 | duvelisib -0.069 | gandotinib -0.015 | tozasertib 0.015 | doramapimod 0.037 | bafetinib -0.165 | [6] 0.086

ZNF92 (UniProt Q03936)
inactive: alvocidib 0.124 | Tubastatin A -0.061 | [1] -0.095 | defactinib -0.092 | [2] -0.061 | alisertib 0.018 | [4] -0.09 | gefitinib -0.045 | lapatinib -0.102 | pictilisib 0.04 | crizotinib 0.051 | [5] -0.087 | duvelisib 0.068 | gandotinib -0.121 | doramapimod -0.03 | bafetinib 0.04 | [6] 0.022

ZNF592 (UniProt Q92610)
inactive: alvocidib -0.21 | Tubastatin A -0.156 | [1] -0.051 | [2] -0.031 | encorafenib -0.074 | [3] 0.071 | [4] -0.04 | lapatinib 0.051 | pictilisib -0.06 | crizotinib -0.062 | [5] 0.053 | duvelisib 0.046 | gandotinib -0.122 | tozasertib -0.019 | doramapimod 0.14 | bafetinib -0.25 | [6] 0.122

ZNF277 (UniProt Q9NRM2)
inactive: alvocidib -0.04 | Tubastatin A -0.099 | [1] -0.002 | defactinib 0.014 | [2] -0.02 | encorafenib 0.053 | [3] 0.136 | alisertib 0.036 | [4] 0.005 | gefitinib -0.035 | lapatinib -0.102 | pictilisib -0.069 | crizotinib -0.029 | [5] -0.101 | duvelisib -0.007 | gandotinib -0.034 | tozasertib -0.001 | doramapimod 0.012 | bafetinib -0.192 | [6] 0.081

ZNFX1 (UniProt Q9P2E3)
inactive: alvocidib -0.053 | Tubastatin A -0.071 | [1] -0.025 | defactinib -0.057 | [2] -0.112 | encorafenib -0.109 | [3] -0.055 | alisertib 0.002 | [4] -0.022 | gefitinib -0.016 | lapatinib 0.088 | pictilisib 0.039 | crizotinib -0.052 | [5] 0.013 | duvelisib -0.048 | gandotinib -0.104 | tozasertib 0.067 | doramapimod -0.047 | bafetinib 0.053 | [6] 0.224

ZNF574 isoform 2 (UniProt Q6ZN55)
inactive: alvocidib -0.024 | Tubastatin A 0.034 | [1] -0.026 | encorafenib 0.101 | [3] 0.094 | alisertib 0.006 | [4] 0.105 | gefitinib 0.021 | lapatinib 0.045 | pictilisib -0.052 | crizotinib -0.013 | [5] -0.037 | gandotinib 0 | tozasertib 0.109 | doramapimod -0.084 | bafetinib 0.068 | [6] 0.059

ZSWIM8 isoform 4 (UniProt A7E2V4)
inactive: alvocidib 0.078 | Tubastatin A 0.149 | [1] -0.171 | defactinib 0.088 | [2] -0.226 | encorafenib 0.035 | [3] -0.071 | alisertib -0.034 | gefitinib -0.073 | pictilisib -0.253 | crizotinib 0.027 | [5] -0.027 | duvelisib -0.145 | gandotinib -0.153 | tozasertib 0.169 | doramapimod -0.084 | bafetinib -0.257 | [6] 0.205

ZNF654, A0A1B0GWA0
inactive: alvocidib 0.018 | Tubastatin A 0.034 | [1] 0.054 | alisertib -0.047 | [4] 0.048 | gefitinib 0.111 | lapatinib -0.039 | pictilisib -0.047 | crizotinib -0.053 | [5] -0.124 | gandotinib -0.075 | doramapimod 0.127 | bafetinib -0.042 | [6] 0.102
